These results are taken from PMC4980872.

Chains of the proteins cited; added tags and fusions are not shown.
UniProt O75376: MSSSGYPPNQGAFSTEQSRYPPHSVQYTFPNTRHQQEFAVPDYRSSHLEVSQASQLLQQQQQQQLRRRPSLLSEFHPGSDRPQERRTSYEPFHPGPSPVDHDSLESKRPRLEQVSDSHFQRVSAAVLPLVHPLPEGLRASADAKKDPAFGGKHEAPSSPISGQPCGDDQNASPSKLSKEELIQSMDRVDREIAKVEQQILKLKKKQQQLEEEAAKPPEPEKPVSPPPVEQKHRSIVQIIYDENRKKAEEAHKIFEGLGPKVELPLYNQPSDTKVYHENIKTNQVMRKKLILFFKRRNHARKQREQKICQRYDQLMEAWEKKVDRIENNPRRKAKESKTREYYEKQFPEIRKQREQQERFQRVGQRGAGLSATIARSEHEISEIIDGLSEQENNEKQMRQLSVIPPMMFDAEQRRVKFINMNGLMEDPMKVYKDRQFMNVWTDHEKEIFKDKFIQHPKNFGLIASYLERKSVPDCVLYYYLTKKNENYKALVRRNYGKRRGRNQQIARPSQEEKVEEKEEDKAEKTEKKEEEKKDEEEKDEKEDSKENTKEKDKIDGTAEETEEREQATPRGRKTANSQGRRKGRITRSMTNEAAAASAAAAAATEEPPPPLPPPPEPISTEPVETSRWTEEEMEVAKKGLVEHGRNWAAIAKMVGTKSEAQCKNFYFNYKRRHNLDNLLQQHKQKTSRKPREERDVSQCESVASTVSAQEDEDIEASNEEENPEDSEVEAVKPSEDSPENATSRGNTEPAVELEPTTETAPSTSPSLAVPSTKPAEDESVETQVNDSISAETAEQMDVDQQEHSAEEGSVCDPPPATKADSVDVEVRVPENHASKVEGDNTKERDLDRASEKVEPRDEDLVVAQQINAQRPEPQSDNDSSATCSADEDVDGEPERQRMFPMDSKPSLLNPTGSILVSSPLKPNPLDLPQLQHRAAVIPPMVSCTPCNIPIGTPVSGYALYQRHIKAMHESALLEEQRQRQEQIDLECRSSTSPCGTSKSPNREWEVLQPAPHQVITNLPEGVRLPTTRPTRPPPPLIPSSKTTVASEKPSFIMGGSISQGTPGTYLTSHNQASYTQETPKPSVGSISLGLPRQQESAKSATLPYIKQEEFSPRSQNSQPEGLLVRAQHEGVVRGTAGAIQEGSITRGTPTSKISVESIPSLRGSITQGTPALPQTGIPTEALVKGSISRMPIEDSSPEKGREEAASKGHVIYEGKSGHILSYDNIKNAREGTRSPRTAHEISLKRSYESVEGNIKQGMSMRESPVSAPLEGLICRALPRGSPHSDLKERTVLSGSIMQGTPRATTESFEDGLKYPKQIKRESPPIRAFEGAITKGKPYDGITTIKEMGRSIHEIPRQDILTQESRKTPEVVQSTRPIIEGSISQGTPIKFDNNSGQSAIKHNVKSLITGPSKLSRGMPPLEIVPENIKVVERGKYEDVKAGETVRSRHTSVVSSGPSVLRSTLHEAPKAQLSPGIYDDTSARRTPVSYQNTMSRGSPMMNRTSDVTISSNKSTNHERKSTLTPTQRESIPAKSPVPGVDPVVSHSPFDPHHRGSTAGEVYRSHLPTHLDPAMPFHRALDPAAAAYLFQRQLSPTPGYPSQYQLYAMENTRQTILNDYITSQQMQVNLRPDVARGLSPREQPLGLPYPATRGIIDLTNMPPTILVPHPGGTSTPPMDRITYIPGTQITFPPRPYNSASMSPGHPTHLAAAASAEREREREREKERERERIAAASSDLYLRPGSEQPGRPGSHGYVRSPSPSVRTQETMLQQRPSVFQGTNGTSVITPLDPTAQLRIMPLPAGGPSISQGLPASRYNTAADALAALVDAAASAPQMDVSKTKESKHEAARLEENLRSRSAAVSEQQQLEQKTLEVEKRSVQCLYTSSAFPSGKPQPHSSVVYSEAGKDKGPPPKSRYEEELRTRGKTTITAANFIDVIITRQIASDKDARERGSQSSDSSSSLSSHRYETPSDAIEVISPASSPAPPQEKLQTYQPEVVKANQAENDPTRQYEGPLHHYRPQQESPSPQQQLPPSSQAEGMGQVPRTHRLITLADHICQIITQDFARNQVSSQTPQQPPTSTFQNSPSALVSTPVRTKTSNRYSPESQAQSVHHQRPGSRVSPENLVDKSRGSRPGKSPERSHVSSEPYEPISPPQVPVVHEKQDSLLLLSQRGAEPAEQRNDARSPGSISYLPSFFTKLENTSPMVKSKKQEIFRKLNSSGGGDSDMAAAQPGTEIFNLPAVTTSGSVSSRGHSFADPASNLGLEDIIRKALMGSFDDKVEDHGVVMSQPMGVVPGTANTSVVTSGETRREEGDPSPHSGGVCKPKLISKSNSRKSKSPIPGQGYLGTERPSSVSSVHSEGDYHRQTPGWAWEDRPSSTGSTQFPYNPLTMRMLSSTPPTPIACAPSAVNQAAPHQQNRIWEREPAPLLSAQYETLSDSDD
UniProt Q9HCK8: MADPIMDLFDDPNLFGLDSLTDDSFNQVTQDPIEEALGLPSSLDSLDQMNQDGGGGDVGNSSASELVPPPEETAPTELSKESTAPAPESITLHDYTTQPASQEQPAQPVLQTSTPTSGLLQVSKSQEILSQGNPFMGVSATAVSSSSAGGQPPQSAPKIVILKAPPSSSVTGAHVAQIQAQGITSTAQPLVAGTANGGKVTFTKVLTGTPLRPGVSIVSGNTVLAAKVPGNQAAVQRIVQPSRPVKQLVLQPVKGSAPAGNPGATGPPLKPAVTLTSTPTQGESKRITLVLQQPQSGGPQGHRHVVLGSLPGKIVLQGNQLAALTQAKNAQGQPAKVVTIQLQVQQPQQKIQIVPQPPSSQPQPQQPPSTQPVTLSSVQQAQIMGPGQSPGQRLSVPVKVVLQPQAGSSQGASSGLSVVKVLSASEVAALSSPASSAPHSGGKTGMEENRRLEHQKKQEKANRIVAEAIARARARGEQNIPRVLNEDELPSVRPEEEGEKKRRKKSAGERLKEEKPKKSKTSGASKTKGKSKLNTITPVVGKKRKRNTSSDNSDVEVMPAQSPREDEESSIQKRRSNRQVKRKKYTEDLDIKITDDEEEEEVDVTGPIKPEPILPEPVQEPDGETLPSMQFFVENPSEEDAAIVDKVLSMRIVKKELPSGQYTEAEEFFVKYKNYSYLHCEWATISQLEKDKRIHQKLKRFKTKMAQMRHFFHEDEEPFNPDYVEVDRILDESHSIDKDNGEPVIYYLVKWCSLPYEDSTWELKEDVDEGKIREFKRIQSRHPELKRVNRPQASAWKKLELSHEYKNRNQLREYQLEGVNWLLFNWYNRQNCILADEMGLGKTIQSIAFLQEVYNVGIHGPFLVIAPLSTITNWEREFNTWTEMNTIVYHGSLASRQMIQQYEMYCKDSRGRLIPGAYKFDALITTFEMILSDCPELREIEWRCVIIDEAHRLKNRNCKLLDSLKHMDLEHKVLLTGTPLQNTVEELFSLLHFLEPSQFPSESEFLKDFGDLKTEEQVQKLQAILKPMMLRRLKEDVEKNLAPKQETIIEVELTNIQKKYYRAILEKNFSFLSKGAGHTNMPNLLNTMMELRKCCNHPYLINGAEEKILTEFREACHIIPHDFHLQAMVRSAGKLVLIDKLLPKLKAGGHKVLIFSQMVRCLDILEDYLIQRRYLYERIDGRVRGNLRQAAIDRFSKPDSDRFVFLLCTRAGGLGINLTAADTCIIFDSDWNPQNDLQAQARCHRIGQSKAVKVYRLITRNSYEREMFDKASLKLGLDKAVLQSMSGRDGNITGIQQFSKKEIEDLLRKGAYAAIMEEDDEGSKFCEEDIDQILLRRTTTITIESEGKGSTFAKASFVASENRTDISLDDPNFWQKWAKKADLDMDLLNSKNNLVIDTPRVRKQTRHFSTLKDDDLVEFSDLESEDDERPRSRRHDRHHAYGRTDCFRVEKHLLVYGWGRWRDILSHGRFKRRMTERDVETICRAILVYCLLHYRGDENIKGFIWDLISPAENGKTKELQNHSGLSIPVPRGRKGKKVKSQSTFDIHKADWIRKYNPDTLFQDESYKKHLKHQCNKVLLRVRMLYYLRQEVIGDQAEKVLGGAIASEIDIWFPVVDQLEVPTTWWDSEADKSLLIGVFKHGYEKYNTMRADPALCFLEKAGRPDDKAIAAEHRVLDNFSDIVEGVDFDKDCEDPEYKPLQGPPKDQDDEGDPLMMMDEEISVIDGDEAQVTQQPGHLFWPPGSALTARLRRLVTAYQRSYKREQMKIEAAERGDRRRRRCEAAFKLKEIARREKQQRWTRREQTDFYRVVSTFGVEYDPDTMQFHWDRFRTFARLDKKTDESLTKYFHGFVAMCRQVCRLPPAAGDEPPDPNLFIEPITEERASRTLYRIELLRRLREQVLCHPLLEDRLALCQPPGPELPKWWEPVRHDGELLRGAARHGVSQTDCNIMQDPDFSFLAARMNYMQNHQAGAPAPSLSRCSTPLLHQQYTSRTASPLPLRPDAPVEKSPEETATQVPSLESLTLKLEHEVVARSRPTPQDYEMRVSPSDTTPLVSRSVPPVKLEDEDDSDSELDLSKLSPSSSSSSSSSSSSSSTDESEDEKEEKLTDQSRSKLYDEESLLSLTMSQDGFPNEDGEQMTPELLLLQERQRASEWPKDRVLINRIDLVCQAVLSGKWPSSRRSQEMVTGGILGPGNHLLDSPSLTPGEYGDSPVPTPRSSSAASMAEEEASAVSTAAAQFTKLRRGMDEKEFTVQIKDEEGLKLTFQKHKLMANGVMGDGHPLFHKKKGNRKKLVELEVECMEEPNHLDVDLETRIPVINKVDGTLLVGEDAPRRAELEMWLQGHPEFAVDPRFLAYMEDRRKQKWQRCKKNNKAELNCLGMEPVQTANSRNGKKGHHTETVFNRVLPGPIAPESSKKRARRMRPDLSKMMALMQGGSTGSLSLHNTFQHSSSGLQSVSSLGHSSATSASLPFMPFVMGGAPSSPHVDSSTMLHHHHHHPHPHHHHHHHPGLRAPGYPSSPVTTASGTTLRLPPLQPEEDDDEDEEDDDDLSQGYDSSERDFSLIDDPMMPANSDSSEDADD

This experiment concerns the target NCOR1 (nuclear receptor corepressor 1) (UniProt O75376). In words: co-IP; co-immunoprecipitations in various CRC cell lines; bait and antibodies not stated.

Results are given in words; binding and its absence hold for the method and conditions named. Binding seen in cells or lysates may run through a third protein. Some binding calls cover weakened binding; strength is not graded here.

Regarding “CHD8 (Chromodomain helicase DNA binding 8) protein (from UniProt Q9HCK8 1-2581)”, the binding entry is “binds”.
